# Laboratory results as given in PubChem BioAssay (EPA / NIEHS).
# Amino acid sequences for entries named in this document (tags omitted). A change or cut given only in a name is not applied to a line headed by its entry.
# UniProt P42336, whole entry, looked up: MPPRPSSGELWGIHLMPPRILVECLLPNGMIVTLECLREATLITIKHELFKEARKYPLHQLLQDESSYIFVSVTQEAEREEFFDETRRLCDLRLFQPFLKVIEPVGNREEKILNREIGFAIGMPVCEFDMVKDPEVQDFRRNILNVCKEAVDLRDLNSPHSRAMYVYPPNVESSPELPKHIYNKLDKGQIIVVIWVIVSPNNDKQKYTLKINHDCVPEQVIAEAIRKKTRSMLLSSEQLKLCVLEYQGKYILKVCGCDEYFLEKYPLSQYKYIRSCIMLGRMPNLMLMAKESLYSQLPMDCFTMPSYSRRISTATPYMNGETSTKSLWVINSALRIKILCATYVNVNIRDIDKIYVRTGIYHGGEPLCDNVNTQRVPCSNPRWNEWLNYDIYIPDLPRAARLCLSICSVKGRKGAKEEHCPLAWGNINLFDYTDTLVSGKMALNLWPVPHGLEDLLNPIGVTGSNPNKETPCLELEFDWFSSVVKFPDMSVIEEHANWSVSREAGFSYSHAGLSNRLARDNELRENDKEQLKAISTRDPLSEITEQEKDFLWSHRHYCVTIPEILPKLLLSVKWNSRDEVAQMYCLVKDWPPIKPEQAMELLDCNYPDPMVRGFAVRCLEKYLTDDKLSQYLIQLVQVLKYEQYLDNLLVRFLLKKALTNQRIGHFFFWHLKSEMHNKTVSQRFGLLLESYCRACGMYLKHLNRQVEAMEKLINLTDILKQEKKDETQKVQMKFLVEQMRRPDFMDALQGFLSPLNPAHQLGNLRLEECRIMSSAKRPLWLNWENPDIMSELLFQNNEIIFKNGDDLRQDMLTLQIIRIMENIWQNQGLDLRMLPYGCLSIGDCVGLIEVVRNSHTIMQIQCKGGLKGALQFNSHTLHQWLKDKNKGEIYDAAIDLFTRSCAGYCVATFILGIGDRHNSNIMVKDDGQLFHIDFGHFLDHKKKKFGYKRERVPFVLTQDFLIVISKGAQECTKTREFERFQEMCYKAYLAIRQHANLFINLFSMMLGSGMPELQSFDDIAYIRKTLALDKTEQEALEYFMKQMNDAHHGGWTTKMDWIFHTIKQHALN
# UniProt P35813: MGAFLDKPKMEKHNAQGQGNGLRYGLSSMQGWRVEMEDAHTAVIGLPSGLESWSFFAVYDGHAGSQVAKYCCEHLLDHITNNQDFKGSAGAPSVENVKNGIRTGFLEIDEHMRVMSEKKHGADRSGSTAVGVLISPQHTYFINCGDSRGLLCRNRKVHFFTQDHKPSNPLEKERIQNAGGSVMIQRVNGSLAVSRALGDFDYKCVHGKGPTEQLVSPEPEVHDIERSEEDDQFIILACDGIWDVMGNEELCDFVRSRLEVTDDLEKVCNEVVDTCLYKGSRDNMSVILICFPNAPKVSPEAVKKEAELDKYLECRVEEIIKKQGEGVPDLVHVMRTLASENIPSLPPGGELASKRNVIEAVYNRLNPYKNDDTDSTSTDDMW
# UniProt P67775, whole entry, looked up: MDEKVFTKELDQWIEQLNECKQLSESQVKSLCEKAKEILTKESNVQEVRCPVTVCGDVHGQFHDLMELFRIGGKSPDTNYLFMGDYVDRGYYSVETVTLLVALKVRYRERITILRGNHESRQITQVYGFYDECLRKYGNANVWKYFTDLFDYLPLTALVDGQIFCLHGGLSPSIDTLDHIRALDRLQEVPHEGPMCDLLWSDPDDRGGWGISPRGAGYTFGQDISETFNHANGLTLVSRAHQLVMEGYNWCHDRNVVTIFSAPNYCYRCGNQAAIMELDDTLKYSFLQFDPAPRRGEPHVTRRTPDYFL
# UniProt P62136, whole entry, looked up: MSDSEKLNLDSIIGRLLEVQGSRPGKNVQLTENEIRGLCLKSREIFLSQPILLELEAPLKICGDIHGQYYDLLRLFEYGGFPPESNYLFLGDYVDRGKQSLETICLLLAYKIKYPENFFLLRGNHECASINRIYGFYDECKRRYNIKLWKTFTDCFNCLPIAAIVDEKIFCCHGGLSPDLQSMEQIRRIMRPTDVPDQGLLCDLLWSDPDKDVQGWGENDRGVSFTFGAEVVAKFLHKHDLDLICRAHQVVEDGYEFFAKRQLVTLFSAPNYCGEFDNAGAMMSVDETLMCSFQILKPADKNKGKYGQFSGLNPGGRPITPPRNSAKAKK
# This list was built around the results that the source calls inconclusive (neither active nor inactive); the mix of calls is not that of the screen. Where the call is inconclusive, the potency comes from a doubtful curve fit. Activity calls are given as the source filed them. The calls were made as follows: active = hit-call score of the fitted dose curve at least 0.9, where 1 is the maximum; inconclusive = response in the unintended direction; inactive = score below 0.9.
# Molecular target: human Phosphoinositide 3-kinase alpha (PI3Ka), PIK3CA (gene 5290) (UniProt P42336)
# Assay: NVS_ENZ_hPI3Ka: NovaScreen (NVS) Enzymatic Assay for human Phosphoinositide 3-kinase alpha (PI3Ka) (AID 2283196)
# Procedure, shortened: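 Fluorescence/mobility-shift readout of substrate conversion by recombinant enzyme, 1 h post-dosing. Primary screen in duplicate at 25 uM; actives (e.g. ≥30% inhibition) retested in singleton concentration-response, top concentration 50 uM.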
Compound,AC50,outcome
O=C(N[C@H]1CN2CCC1CC2)c1ccc2c(c1)OCCO2,inconclusive: 25 µM,
CCCN(CCC)N=O,inconclusive: 25 µM,
O=[N+]([O-])c1ccc(Cl)c(Cl)c1,inconclusive: 25 µM,
O=C(O)C1(c2ccc3c(c2)OC[C@H](Cc2ccc(-c4ccccc4)cc2)[C@H]3O)CCCC1,,inactive
COC(C)(C)CCC[C@H](C)C/C=C/C(C)=C/C(=O)OC(C)C,,inactive
COc1cnc(OC)n2nc(NS(=O)(=O)c3c(OCC(F)F)cccc3C(F)(F)F)nc12,inconclusive: 25 µM,
O=S(=O)(O)C(F)(F)C(F)(F)C(F)(F)C(F)(F)C(F)(F)C(F)(F)F,inconclusive: 0.277 µM,
CCN(CC)C(=O)SCc1ccc(Cl)cc1,,inactive
CC(C)(OO)c1ccccc1,inconclusive: 0.226 µM,
C=C(C)C(=O)OCC(CC)CCCC (stereo not given),inconclusive: 19.6 µM,
COc1ccc(C(=CC(=O)N2CCOCC2)c2ccc(Cl)cc2)cc1OC,inconclusive: 25 µM,
ClCCBr,active: 0.383 µM,
COC(=O)c1ccccc1C(=O)OC,,inactive

# Molecular target: human Protein Phosphatase, Mg2+/Mn2+ Dependent 1A (PPM1A), PPM1A (gene 5494) (UniProt P35813)
# Assay: NVS_ENZ_hPPM1A: NovaScreen (NVS) Enzymatic Assay for human Protein Phosphatase, Mg2+/Mn2+ Dependent 1A (PPM1A) (AID 2283198)
# Procedure, shortened: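 Cell-free recombinant PPM1A phosphatase assay with fluorescent substrate, read 1 h after dosing by electrophoretic mobility shift. Chemicals screened in duplicate at 25 uM, then in concentration-response up to 50 uM; loss of activity versus DMSO.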
Compound,outcome,AC50
O=C(N[C@H]1CN2CCC1CC2)c1ccc2c(c1)OCCO2,inactive,
CC(C)COC(=O)c1ccccc1C(=O)OCC(C)C,,inconclusive: 25 µM
O=[N+]([O-])c1ccccc1,,inconclusive: 39.8 µM
CC(=O)[O][Hg][c]1ccccc1,inactive,
CCOc1cccc(C2(N3CCN(c4ccccc4)CC3)CCC(C)CC2)c1 (stereo not given),inactive,
O=C(N[C@H]1CN2CCC1CC2)c1cc2ccoc2cn1,,inconclusive: 0.123 µM

# One compound at a time, from the list above:
# CCOc1cccc(C2(N3CCN(c4ccccc4)CC3)CCC(C)CC2)c1 (stereo not given) is listed as outcome: inactive
# O=[N+]([O-])c1ccccc1 is listed as AC50: inconclusive: 39.8 µM

# Molecular target: PPP2CA (gene 5515) (UniProt P67775)
# Assay: NVS_ENZ_hPPP2CA: NovaScreen (NVS) Enzymatic Assay for human Protein Phosphatase 2 Aatalytic subunit Alpha (PPP2CA) (AID 2283199)
# Procedure, shortened: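 Recombinant human PPP2CA with fluorescent substrate; product separated from substrate by electrophoretic mobility shift, read 1.33 h after dosing. Duplicate single-point at 25 uM, then singleton concentration-response up to 50 uM; loss of signal versus DMSO.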
Compound,AC50,outcome
O=S(=O)(O)C(F)(F)C(F)(F)C(F)(F)C(F)(F)C(F)(F)C(F)(F)F,inconclusive: 25 µM,
CSC1=N[C@@](C)(c2ccccc2)C(=O)N1Nc1ccccc1,inconclusive: 25 µM,
Cc1cc(-c2ccc(N)c(C)c2)ccc1N,,inactive
CC(C)(C)OOC(C)(C)C,,inactive

# Molecular target: Serine/threonine-protein phosphatase PP1-alpha catalytic subunit (Homo sapiens) (UniProt P62136)
# Assay: NVS_ENZ_hPPP1CA: NovaScreen (NVS) Enzymatic Assay for human Protein Phosphatase 1 Aatalytic subunit Alpha (PPP1CA) (AID 2283200)
# Procedure, shortened: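 Recombinant enzyme activity read by fluorescence with electrophoretic mobility shift separating substrate from product, 1.33 h after dosing; loss of signal vs DMSO baseline. Primary screen in duplicate at 25 uM; actives retested in concentration-response up to 50 uM.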
Compound,AC50,outcome
CC(C)N1C(=O)c2ccccc2NS1(=O)=O,inconclusive: 25 µM,
O=C(O)C(F)(F)C(F)(F)C(F)(F)C(F)(F)C(F)(F)C(F)(F)C(F)(F)C(F)(F)C(F)(F)F,active: 43.3 µM,
CC(Cl)(Cl)C(=O)O,inconclusive: 25 µM,
O=S(=O)(O)C(F)(F)C(F)(F)C(F)(F)C(F)(F)C(F)(F)C(F)(F)F,inconclusive: 0.368 µM,
O=[N+]([O-])c1c(Cl)c(Cl)c(Cl)c(Cl)c1Cl,,inactive
CCC12COCN1COC2,inconclusive: 45 µM,
Clc1ccc(Cl)c(Cl)c1,inconclusive: 0.344 µM,
Cc1ccc(N=C=O)cc1N=C=O,,inactive
CCSC(=O)N(CC)C1CCCCC1,inconclusive: 25 µM,
CC(C)(C)c1ccc(O)cc1,,inactive
CC(C)C(=O)OCC(C)(C)C(OC(=O)C(C)C)C(C)C (stereo not given),,inactive
Clc1ccc(C(c2ccccc2Cl)C(Cl)(Cl)Cl)cc1 (stereo not given),,inactive
